Measured values taken from patent US20250375434A1, “SMALL MOLECULES AND METHODS FOR INDUCING CARDIOMYOCYTE PROLIFERATION” (UNIVERSITY OF VIRGINIA PATENT FOUNDATION, priority 2024, published 2025).
At least one structure is not confirmed: it was looked up by name or label, or the drawing left a doubt.

Tests used:
[1] = test system: hiPSC-CMs (iCell Cardiomyocytes); test: Multinucleation analysis after 6 days of treatment; assay type: cell-based, human; conditions: 10 μM inhibitor in combination with 3.2 μM C3 (stimulated hiPSC-CMs)
Procedure: Multinucleation Analysis—Multinucleated cells were identified based on the distance between neighboring nuclei. This distance threshold was determined using Cardiac-Troponin T staining to visualize cell borders. A morphological closing operation with a circular structuring element was applied to the binary segmented mask to merge and classify nuclei in multinucleated cells.

[2] = test system: hiPSC-CMs (iCell Cardiomyocytes); test: DNA synthesis assay (48 h EdU incorporation); conditions: for effect of inhibitor on C3 induced DNA synthesis: 10 μM inhibitor in combination with 3.2 μM C3, 48 h
[3] = test system: hiPSC-CMs (iCell Cardiomyocytes); test: Live-cell proliferation assay (change in number of cells over 6 days); conditions: 10 μM inhibitor in combination with 3.2 μM C3, day 6
[4] = test system: hiPSC-CMs (iCell Cardiomyocytes); test: DNA content / ploidy and cell cycle phase analysis after 6 days of treatment; conditions: 10 μM inhibitor alone or with C3, compared to negative control or compound treatment alone

Row | Compound | multinucleation, G0 intermediate DNA content, or G0 tetraploidy [1] | effect of inhibitor on C3 induced DNA synthesis [2] | effect of inhibitor on C3 induced proliferation (increase in cell numbers) [3] | population of 2c nuclei [4] | effect of inhibitor alone on DNA synthesis (EdU incorporation) ([2]; 10 μM inhibitor alone, unstimulated hiPSC-CMs, 48 h)
1 | Oc1c2ccccc2c2c3c(cccc13)N=N2 [SP600125] | did not correlate with increased multinucleation | attenuated | attenuated |  | 
2 | CNC(=O)c1ccccc1Sc1ccc2c(/C=C/c3ccccn3)n[nH]c2c1 [axitinib] |  |  |  | substantial decreases | 
3 | O=c1cc(N2CCOCC2)oc2c(-c3ccccc3)cccc12 [LY294002] | did not correlate with increased multinucleation | attenuated | attenuated |  | modest decreases
